12 targets from the supplement of paper PMC10849652 can be followed below.

Chains of the proteins cited; added tags and fusions are not shown. Lines headed by an entry give the natural chain unless they say otherwise; changes in a name come on top.
UniProt Q9P0J1: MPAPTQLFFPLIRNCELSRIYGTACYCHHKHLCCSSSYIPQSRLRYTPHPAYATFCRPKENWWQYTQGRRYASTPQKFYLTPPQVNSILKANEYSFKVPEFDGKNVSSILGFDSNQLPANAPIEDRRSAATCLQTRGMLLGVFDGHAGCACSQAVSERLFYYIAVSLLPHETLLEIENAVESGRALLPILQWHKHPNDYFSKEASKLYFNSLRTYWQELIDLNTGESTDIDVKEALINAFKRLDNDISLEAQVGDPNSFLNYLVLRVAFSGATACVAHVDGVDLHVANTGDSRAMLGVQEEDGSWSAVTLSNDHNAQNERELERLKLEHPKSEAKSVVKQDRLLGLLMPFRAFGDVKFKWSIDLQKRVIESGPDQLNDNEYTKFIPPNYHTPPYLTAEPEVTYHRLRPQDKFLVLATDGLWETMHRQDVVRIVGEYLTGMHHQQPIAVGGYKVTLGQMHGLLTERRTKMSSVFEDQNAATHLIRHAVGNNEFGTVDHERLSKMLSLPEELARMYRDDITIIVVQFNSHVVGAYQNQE
UniProt O60683: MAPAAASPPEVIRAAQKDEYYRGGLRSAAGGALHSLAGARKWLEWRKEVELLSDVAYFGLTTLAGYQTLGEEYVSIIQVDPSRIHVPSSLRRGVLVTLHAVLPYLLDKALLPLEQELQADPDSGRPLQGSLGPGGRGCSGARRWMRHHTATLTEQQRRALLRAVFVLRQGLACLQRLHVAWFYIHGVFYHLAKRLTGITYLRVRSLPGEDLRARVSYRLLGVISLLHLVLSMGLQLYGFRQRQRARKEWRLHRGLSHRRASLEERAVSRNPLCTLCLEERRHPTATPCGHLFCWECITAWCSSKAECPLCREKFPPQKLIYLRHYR
UniProt Q9NV79: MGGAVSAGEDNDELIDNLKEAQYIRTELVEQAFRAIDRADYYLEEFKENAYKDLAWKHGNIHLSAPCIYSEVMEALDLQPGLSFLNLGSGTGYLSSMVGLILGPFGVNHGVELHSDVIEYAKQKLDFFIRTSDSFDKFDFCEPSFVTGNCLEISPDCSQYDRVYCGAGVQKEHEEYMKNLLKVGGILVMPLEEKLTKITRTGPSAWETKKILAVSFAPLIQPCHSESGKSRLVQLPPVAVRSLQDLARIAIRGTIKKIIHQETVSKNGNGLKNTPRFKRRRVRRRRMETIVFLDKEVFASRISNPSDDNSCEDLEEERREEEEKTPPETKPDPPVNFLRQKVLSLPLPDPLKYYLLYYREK
UniProt Q9H6A9: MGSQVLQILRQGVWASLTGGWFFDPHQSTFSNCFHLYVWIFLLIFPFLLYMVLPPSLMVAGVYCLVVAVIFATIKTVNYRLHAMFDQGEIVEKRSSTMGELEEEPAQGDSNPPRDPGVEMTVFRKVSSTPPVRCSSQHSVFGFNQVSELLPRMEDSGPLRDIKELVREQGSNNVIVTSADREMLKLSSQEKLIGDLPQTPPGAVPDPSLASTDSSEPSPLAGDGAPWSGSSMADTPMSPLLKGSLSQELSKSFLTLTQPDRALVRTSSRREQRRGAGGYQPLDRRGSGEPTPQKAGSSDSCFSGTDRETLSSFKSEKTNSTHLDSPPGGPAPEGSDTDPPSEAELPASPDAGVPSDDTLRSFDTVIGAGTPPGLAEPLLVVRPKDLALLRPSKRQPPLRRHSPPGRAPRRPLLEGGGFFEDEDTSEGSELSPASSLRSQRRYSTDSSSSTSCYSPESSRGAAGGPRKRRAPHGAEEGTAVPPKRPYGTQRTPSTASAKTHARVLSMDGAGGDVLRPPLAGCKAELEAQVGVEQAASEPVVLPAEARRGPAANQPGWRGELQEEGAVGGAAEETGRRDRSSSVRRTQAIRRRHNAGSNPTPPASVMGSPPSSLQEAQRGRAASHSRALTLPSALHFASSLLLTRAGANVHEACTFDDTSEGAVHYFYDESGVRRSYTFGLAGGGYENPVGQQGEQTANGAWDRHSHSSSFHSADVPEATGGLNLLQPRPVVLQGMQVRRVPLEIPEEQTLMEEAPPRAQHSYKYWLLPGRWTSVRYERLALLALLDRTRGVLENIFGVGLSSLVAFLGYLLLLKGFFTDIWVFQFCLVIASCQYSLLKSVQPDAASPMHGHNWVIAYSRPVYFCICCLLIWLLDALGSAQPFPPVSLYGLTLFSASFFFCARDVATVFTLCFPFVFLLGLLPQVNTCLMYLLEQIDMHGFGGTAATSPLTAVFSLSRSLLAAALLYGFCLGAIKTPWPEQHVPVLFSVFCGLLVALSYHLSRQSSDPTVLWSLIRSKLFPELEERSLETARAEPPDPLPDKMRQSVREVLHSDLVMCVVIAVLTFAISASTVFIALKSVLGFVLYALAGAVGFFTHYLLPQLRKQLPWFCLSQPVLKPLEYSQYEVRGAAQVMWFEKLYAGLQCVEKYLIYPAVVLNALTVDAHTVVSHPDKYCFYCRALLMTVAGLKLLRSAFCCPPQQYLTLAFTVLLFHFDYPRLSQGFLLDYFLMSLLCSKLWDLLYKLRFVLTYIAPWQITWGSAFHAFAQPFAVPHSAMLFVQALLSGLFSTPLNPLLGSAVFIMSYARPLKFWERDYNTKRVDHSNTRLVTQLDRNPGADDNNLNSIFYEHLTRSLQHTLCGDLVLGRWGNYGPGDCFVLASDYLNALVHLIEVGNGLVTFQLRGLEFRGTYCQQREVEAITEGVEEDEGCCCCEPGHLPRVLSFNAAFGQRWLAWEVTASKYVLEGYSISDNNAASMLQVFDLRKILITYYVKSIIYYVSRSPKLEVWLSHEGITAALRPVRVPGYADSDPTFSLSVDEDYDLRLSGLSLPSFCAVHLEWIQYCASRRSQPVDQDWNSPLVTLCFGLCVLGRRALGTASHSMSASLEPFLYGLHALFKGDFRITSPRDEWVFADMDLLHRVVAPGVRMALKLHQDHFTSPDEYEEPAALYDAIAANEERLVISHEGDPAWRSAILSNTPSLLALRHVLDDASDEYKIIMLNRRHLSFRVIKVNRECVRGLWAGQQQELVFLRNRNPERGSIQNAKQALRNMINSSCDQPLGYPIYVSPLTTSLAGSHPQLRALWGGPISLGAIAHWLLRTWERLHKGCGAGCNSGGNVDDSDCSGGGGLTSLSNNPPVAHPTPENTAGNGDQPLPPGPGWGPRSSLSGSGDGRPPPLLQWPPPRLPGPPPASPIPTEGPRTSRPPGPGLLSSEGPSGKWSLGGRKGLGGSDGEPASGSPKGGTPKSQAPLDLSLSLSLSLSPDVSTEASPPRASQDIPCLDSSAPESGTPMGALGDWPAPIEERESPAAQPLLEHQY
UniProt P56589: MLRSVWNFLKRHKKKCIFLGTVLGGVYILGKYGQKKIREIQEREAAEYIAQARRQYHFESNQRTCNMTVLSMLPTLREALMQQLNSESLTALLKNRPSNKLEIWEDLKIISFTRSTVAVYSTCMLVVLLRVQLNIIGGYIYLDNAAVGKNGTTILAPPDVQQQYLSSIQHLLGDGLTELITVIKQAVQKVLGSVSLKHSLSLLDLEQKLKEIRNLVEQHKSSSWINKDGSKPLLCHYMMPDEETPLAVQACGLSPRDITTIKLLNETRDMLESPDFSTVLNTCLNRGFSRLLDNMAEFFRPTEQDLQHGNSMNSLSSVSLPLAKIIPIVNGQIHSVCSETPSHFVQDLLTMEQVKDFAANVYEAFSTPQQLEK
UniProt Q3KNV8: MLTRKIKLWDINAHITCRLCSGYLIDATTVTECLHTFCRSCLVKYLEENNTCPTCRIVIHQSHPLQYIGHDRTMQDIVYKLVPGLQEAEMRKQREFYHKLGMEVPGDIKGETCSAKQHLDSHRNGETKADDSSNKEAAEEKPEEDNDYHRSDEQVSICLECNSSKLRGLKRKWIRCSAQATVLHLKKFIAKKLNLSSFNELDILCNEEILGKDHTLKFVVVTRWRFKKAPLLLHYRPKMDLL
UniProt O15055: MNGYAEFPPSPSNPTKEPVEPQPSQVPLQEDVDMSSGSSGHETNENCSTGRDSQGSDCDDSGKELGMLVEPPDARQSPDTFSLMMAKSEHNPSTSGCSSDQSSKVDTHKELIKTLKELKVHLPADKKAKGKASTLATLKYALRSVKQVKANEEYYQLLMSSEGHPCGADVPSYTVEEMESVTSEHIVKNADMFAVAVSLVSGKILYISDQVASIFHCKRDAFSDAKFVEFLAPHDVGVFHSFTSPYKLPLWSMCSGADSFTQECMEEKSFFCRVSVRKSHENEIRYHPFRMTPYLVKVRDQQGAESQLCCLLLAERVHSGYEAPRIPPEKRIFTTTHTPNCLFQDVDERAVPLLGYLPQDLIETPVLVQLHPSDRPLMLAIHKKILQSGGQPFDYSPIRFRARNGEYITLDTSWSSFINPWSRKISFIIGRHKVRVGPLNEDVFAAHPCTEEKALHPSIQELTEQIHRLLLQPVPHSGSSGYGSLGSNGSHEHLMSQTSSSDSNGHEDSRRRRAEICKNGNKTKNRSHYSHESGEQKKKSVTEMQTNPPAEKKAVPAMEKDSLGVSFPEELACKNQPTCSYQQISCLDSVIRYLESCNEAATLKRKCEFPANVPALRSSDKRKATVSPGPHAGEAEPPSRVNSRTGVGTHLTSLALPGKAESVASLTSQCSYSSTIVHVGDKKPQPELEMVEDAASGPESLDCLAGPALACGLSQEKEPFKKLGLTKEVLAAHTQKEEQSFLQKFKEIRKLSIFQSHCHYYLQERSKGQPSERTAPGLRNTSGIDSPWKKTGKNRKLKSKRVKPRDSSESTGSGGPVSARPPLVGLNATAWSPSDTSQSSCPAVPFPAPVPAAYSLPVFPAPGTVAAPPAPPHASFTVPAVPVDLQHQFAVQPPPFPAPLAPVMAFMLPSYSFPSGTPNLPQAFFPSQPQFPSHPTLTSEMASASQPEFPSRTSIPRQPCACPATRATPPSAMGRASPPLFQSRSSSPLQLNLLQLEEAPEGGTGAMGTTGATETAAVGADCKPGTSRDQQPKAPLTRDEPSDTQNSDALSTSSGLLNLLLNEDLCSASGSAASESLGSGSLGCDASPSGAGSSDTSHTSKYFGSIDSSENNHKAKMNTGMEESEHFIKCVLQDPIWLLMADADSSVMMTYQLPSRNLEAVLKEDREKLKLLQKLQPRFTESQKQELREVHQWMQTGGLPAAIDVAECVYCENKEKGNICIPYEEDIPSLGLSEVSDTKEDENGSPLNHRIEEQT
UniProt Q9UBM1: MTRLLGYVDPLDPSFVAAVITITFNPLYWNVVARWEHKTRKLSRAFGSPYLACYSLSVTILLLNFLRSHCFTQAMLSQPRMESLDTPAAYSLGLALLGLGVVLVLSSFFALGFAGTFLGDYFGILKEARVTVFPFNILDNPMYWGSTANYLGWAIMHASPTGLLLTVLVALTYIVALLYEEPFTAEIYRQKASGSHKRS
UniProt Q13608: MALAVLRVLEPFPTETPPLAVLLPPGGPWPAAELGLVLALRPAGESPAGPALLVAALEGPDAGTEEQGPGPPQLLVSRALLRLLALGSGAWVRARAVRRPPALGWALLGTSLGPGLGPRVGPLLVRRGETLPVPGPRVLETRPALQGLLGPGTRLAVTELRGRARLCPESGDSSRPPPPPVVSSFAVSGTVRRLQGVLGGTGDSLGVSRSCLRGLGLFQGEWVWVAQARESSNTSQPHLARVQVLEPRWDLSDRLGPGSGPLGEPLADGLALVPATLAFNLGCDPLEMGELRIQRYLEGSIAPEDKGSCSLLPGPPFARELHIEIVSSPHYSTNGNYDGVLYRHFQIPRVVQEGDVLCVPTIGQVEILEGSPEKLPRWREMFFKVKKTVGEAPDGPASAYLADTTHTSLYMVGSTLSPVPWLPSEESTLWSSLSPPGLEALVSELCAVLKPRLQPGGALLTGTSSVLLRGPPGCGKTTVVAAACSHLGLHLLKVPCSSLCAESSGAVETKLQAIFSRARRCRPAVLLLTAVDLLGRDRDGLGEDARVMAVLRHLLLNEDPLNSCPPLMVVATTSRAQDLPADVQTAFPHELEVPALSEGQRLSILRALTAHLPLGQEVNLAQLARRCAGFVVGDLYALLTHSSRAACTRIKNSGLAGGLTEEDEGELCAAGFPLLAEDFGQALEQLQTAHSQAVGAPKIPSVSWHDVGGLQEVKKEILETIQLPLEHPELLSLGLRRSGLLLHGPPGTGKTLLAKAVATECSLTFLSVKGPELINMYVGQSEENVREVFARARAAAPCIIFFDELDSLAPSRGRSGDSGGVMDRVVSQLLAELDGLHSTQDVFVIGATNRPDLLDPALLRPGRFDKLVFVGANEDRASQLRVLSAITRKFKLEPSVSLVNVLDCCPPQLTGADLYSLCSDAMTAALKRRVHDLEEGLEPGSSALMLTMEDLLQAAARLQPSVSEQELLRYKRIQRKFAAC

The list shows a part of the results.

Assay in all cases: log2 fold change, soluble protein after heating vs DMSO (PISA); higher = thermal stabilisation; K562 lysate, 10 uM; active = over 0.2 and 3.5 SD of the protein, either way, in both replicates (recomputed)
Compound in one experiment: CN1CCc2c(c3ccccc3n2Cc2ccc(C(=O)NO)cc2)C1 [Tubastatin A]
Put shortly:
(§1)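 Soluble protein was defined as the supernatant remaining after 21,000xg for 90 min, following pooling of heated aliquots and adjustment to 0.5% NP-40 at 4°C. Before that, crude K562 extract at 1 mg/mL protein in PBS pH 7.4 with 1 mM MgCl2 was treated with 10 μM compound for 30 min and heated for 3 min across 48°C-58°C. Quantification used TMTpro 16plex LC-MS/MS with channel sums equalised, and values are log-two fold changes in thermal stability relative to solvent controls from duplicates.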

Compound in experiment [1]: CNC(=O)C1=CC=CC=C1NC2=NC(=NC=C2Cl)NC3=C(C=C(C=C3)N4CCOCC4)OC
In a few lines:
as §1

Compound in experiment [2]: CNc1nc(-c2ccc3c(N)n[nH]c3c2)cc(N2C[C@@H](C(=O)NC3CCCCC3)CC[C@H]2C)n1
In a few lines: as §1

Compound in another experiment: COC(=O)N[C@@H](C)CNc1nccc(-c2cn(C(C)C)nc2-c2cc(Cl)cc(NS(C)(=O)=O)c2F)n1 [encorafenib]
Put shortly:
as §1

Compound in experiment [3]: COC(=O)[C@H](CCSC)NC(=O)C1=C(C=C(C=C1)NC[C@H](CS)N)C2=CC=CC=C2
In a few lines: as §1

Compound in the next experiment: C[C@H](Nc1ncnc2nc[nH]c12)c1cc2cccc(Cl)c2c(=O)n1-c1ccccc1 [duvelisib]
In a few lines:
as §1

Compound in another experiment: Cc1cc(Nc2cc(N3CCN(C)CC3)nc(Sc3ccc(NC(=O)C4CC4)cc3)n2)n[nH]1 [tozasertib]
In a few lines: as §1

Compound in the next experiment: CS(=O)(=O)N1CCN(Cc2cc3nc(-c4cccc5[nH]ncc45)nc(N4CCOCC4)c3s2)CC1 [pictilisib]
In a few lines: as §1

Compound in the next experiment: Cc1ccc(NC(=O)c2ccc(CN3CC[C@H](N(C)C)C3)c(C(F)(F)F)c2)cc1Nc1nccc(-c2cncnc2)n1 [bafetinib]
In a few lines:
as §1

Compound in a further experiment: CNC(=O)c1ccc(Nc2ncc(C(F)(F)F)c(NCc3nccnc3N(C)S(C)(=O)=O)n2)cc1 [defactinib]
Put shortly:
as §1

Compound in another experiment: C[C@@H](Oc1cc(-c2cnn(C3CCNCC3)c2)cnc1N)c1c(Cl)ccc(F)c1Cl [crizotinib]
Put shortly:
as §1

Compound in a further experiment: Cc1ccc(-n2nc(C(C)(C)C)cc2NC(=O)Nc2ccc(OCCN3CCOCC3)c3ccccc23)cc1 [doramapimod]
In a few lines:
as §1

Compound in the next experiment: CN1CC[C@H](c2c(O)cc(O)c3c(=O)cc(-c4ccccc4Cl)oc23)[C@H](O)C1 [alvocidib]
In a few lines:
as §1

Compound in experiment [4]: COc1cc2nc(-c3cc(F)ccc3O)nc(N[C@@H]3CNC[C@H]3C(C)(C)O)c2cc1OC
Put shortly:
as §1

Compound in the next experiment: CS(=O)(=O)CCNCc1ccc(-c2ccc3ncnc(Nc4ccc(OCc5cccc(F)c5)c(Cl)c4)c3c2)o1 [lapatinib]
In a few lines: as §1

Compound in experiment [5]: C[C@H](C1=CC=C(C=C1)C(=O)NC2=C3C=CNC3=NC=C2)N
In a few lines:
as §1

Compound in the next experiment: Cc1cc(Nc2cc(CN3CCOCC3)c3nc(C)c(Cc4ccc(Cl)cc4F)n3n2)n[nH]1 [gandotinib]
Put shortly: as §1

Compound in experiment [6]: Cc1cccc(CC(=O)N2CCc3c2ccc(-c2cn(C)c4ncnc(N)c24)c3F)n1
In a few lines: as §1

For the target PDP1 isoform 2 (UniProt Q9P0J1), the log2 fold change with Tubastatin A was inactive: 0.407; in experiment [1] it was inactive: 0.025; in experiment [2], inactive: -0.205; with encorafenib, inactive: 0.14; in [3], inactive: -0.319; with duvelisib, inactive: 0.009. The log2 fold change with tozasertib was inactive: -0.022.

Regarding PEX10 isoform 2 (UniProt O60683), the log2 fold change with pictilisib is inactive: -0.109; in the experiment with bafetinib it was inactive: -0.355.

Take PCMTD2 (UniProt Q9NV79): the log2 fold change in experiment [1] was inactive: -0.357; with defactinib it was inactive: 0.095; in the experiment with encorafenib, inactive: 0; in [3], inactive: 0.11; in the experiment with crizotinib it was inactive: 0.104; with tozasertib it was inactive: 0.253. In addition, the log2 fold change with doramapimod is inactive: 0.006.

Take PCNX3 (UniProt Q9H6A9): the log2 fold change with alvocidib was inactive: 0.035; in the experiment with defactinib, inactive: -0.054; in [2], inactive: -0.127; with encorafenib it was inactive: -0.019; in experiment [3], inactive: 0.02; in [4] it was inactive: 0.043. Further, the log2 fold change in the experiment with lapatinib was inactive: 0.014; with pictilisib, inactive: -0.097; in the experiment with crizotinib it was inactive: 0.037; in experiment [5] it was inactive: -0.195; with duvelisib, inactive: 0; with gandotinib, inactive: 0.034. The log2 fold change with tozasertib was inactive: 0.055; with doramapimod, inactive: -0.045; in the experiment with bafetinib it was inactive: -0.204; in [6], inactive: -0.059.

Turning to PEX3 (UniProt P56589), the log2 fold change with alvocidib was inactive: -0.099; in experiment [2], inactive: 0.042; with encorafenib it was inactive: -0.144; in experiment [3] it was inactive: 0.066; in [4], inactive: 0.09; in the experiment with lapatinib, inactive: -0.148. Also, the log2 fold change with crizotinib was inactive: -0.114; in experiment [5], inactive: -0.188; with duvelisib, inactive: 0.011; in the experiment with gandotinib, inactive: -0.061; with tozasertib, inactive: 0.24; in the experiment with doramapimod it was inactive: 0.046. Moreover, the log2 fold change in experiment [6] was inactive: -0.093.

For the target PCGF3 isoform 2 (UniProt Q3KNV8), the log2 fold change was inactive: 0.051 in experiment [1], inactive: -0.135 with crizotinib and inactive: -0.17 with doramapimod.

Take PER2 (UniProt O15055): the log2 fold change with alvocidib is inactive: -0.032; with defactinib, inactive: 0.044; in [5], inactive: -0.333; in the experiment with gandotinib it was inactive: -0.18; in experiment [6], inactive: -0.201.

As to PEMT isoform 2 (UniProt Q9UBM1), the log2 fold change in the experiment with alvocidib is inactive: 0.14; with defactinib, inactive: -0.083; in experiment [4], inactive: -0.198; with lapatinib, inactive: 0.118; in experiment [5], inactive: -0.125; in the experiment with gandotinib it was inactive: -0.163. The log2 fold change in experiment [6] is inactive: -0.354.

As to PCK1 (UniProt P35558), the log2 fold change in the experiment with alvocidib is inactive: -0.396; in the experiment with defactinib it was inactive: -0.106; in [4] it was inactive: 0.121; with lapatinib it was inactive: -0.084; with pictilisib, inactive: -0.11; in experiment [5] it was inactive: -0.896. Moreover, the values for the log2 fold change (with gandotinib; with bafetinib; in experiment [6]) were inactive: 0.363, inactive: -0.095 and inactive: 0.711, respectively.

For the target PEX6 (UniProt Q13608), the log2 fold change in the experiment with alvocidib was inactive: -0.051; in [1], inactive: -0.092; in experiment [2], inactive: -0.034; with encorafenib, inactive: -0.02; in [3], inactive: 0.069; in the experiment with pictilisib, inactive: 0.18. In addition, the log2 fold change is inactive: -0.051 in [5]; inactive: -0.031 with duvelisib; inactive: 0.069 with gandotinib; inactive: 0.073 with tozasertib; inactive: 0.011 with bafetinib; inactive: 1.34 in [6].

PEX1 (UniProt O43933): the log2 fold change is inactive: -0.188 with Tubastatin A; inactive: 0.119 in the experiment with defactinib; inactive: -0.09 with encorafenib; inactive: -0.137 in experiment [3]; inactive: 0.071 in experiment [4]; inactive: -0.088 with lapatinib. The log2 fold change is inactive: -0.074 with crizotinib, inactive: -0.314 in the experiment with tozasertib and inactive: -0.037 in the experiment with doramapimod.

Take PDIA4, A0A499FI48: the log2 fold change with alvocidib was inactive: 0.336; in experiment [2] it was inactive: -0.003; with crizotinib, inactive: -0.063; in experiment [5], active: 1.32; in the experiment with duvelisib, inactive: -0.101; with gandotinib, inactive: -0.18. Also, the log2 fold change in the experiment with doramapimod is inactive: -0.039; in [6] it was inactive: -0.154.
